# Measured values from PubChem BioAssay AID2685 (National Center for Advancing Translational Sciences (NCATS), 2010).
# The other results are listed elsewhere or left out. Further columns of the screen follow, without active or inactive calls. The list favours compounds with an active or inconclusive main result. Words in brackets tell the shape of the fitted curve; partial curves, single points and poor fits give uncertain potencies.
# Test: qHTS Assay for Lipid Storage Modulators in Drosophila S3 Cells;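 for cell number change: cells counted by Cell Tracker Red CMTPX staining in the red channel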
# Conditions: BODIPY lipid droplet fluorescence, 18-24 h; for cell number change: measured here: cell count max response, cells fed with added oleic acid
# Summary of the method: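 Drosophila S3 cells got compounds at several concentrations plus oleic acid (400 uM solution). Laser-scanning cytometry with 488 nm excitation read lipid droplets at 500-530 nm and cells at 575-640 nm. Percent activity was relative to 20 uM Triacsin C.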
# [1] = measured here: lipid fluorescence (Fed channel) AC50, cells fed with added oleic acid
# [2] = measured here: cell number channel AC50, cells fed with added oleic acid
SMILES,cell number change,AC50 [1],AC50 [2]
CCC(=O)c1c(CC)c2n3c1CC[C@H]3CCC2,-16%,"29.1 µM [rising, single point]",
N=c1c(S(=O)(=O)c2ccc(Cl)cc2)cc2c(=O)n3ccccc3nc2n1CCN1CCOCC1,,"0.461 µM [rising, full curve]","0.411 µM [rising, full curve]"
Cc1ccc(C)c(S(=O)(=O)Nc2ccccc2C(=O)Nc2ccc(S(=O)(=O)Nc3ncccn3)cc2)c1,23.6%,"16.4 µM [rising, partial curve]",
Cc1ccccc1NS(=O)(=O)c1ccc(C(=O)NCC(c2ccco2)N(C)C)cc1 (stereo not drawn),31.3%,,"2.91 µM [rising, single point]"
CN(CC1CCCN(CCc2ccc(Cl)cc2)C1)C(=O)c1ccoc1 (stereo not drawn),42.4%,"29.1 µM [rising, single point]","29.1 µM [rising, single point]"
O=C(c1cc2ccc([N+](=O)[O-])cc2oc1=O)N1CCOCC1,-59.2%,"0.651 µM [falling, full curve, poor fit]","32.6 µM [falling, partial curve, poor fit]"
Cc1ccsc1C(=O)NNC(=O)c1csc(N2CCOCC2)n1,-6%,,
O=C(NCc1cccnc1)C1CC(=O)N(C2CCCCC2)C1 (stereo not drawn),9.06%,"0.13 µM [rising, full curve, poor fit]","0.13 µM [rising, full curve, poor fit]"
CC1(C)OC(=O)N(c2ccccc2)C12C=Cc1cc(Br)ccc1O2 (stereo not drawn),-18.4%,,
CCN(CC(=O)Nc1ccc2c(c1)OCCO2)C(=O)CCc1ccccc1Cl,-7.7%,"0.731 µM [rising, full curve]",
O=C(COC(=O)c1ccccc1Br)NC1CCCC1,-5.13%,,
Cc1ccsc1CNCc1cc(Cl)ccc1O,-34.2%,,"16.4 µM [falling, partial curve, poor fit]"
CC(=O)Nc1ccc(NC(=O)COc2ccccc2C(=O)Nc2cccc(Cl)c2Cl)cc1,7.8%,"14.6 µM [rising, partial curve]",
Cc1ccc(C(=O)Nc2cccc(NC(=O)c3cccs3)c2)c(C)c1,-19.6%,,
S=C(NCCc1ccccc1)N1CCOCC1,15.3%,"0.58 µM [falling, single point]",
COc1cc(NS(=O)(=O)c2ccc(C)cc2)c2ncccc2c1,-14.6%,"13 µM [falling, single point]",
Cc1ccc(/C=N/NC(=O)c2ccc(OC3CCCC3)cc2)o1,-21.5%,"29.1 µM [falling, single point]",

# Two successive compounds from above, quoted:
SMILES,cell number change,AC50 [1],AC50 [2]
CCC(=O)c1c(CC)c2n3c1CC[C@H]3CCC2,-16%,"29.1 µM [rising, single point]",
N=c1c(S(=O)(=O)c2ccc(Cl)cc2)cc2c(=O)n3ccccc3nc2n1CCN1CCOCC1,,"0.461 µM [rising, full curve]","0.411 µM [rising, full curve]"
